# In PubChem BioAssay AID540276 (National Center for Advancing Translational Sciences (NCATS), 2011):
# Several values for one entry are separate records, joined by “and”; a condition that tells them apart may be missing. Identical values can stand only once. Out of some 300,000 compounds screened, about 5,400 (1.8%) were called active. This list was built around the results that the source calls inconclusive (neither active nor inactive); the mix of calls is not that of the screen. Calls come from the whole dose curve; tested in HEK293 cells. A potency beside an inconclusive call is a rough fit, not a confirmed value.
# Experiment: qHTS for inhibitors of binding or entry into cells for Marburg Virus
# Conditions: Marburg virus pseudotyped entry inhibition, cell reporter; activity change, negative = inhibition: at 37.8 µM (top of the series) unless noted
# % is set by controls: 0 for no effect and ±100 for the full control effect; potency is the fitted concentration of half-maximal effect.
Structure (SMILES),Potency,"activity change, negative = inhibition"
NS(=O)(=O)c1ccc(N2N=C(c3ccccc3)CC2c2cccc(F)c2)cc1 (stereo not drawn),"inconclusive: 5.01 µM [inhibitor, single point]",–
S=C(NCCc1ccccc1)N/N=C/c1ccc(Cl)cc1,–,inactive: 2.33% [at 46.1 µM]
CC1CCCCC1NC(=O)c1cn(C)c2ccc(S(=O)(=O)N3CCOCC3)cc2c1=O (stereo not drawn),–,inactive: 19% [at 46.1 µM]
COc1ccc2cc(C(=O)C3CCCN(Cc4ccccn4)C3)ccc2c1 (stereo not drawn),"inconclusive: 15.8 µM [inhibitor, partial curve, poor fit]",–
COc1ccc(Br)cc1C(=O)Nc1nc2ccc(F)cc2s1,"inconclusive: 2.82 µM [activator, partial curve, poor fit]",–
COc1cc([C@H]2[C@@H]3CCCC[C@]3(O)CCN2CC(=O)Nc2ccc(C)cc2C)ccc1O,"inconclusive: 20 µM [inhibitor, single point]",–
CN1CCc2nc(SCCOc3ccccc3)c(C#N)cc2C1,–,inactive: -19.2%
CN(CC(=O)Nc1ccccc1Cl)C(=O)CSc1nncn1C,"inconclusive: 5.62 µM [inhibitor, single point]",–
CCn1c(CN2c3ccccc3Sc3ccccc32)n[nH]c1=S,"inconclusive: 6.31 µM [inhibitor, single point]",–
O=C1CN(C(=O)/C=C/c2ccc(Cl)cc2Cl)CCN1,"inconclusive: 2.82 µM [activator, single point]",–
Cc1ccc(-c2onc3ccc(C(=O)O)cc23)cc1,–,inactive: -3.23% [at 46.1 µM]
COc1ccc(OCc2cc(=O)[nH]c3ccccc23)cc1,"inconclusive: 3.16 µM [inhibitor, single point]",–
CC(C)NC(=S)NC(=O)c1ccc(Cl)cc1Cl,"inconclusive: 5.01 µM [inhibitor, full curve, poor fit]",–
N=C(N)N1CCc2ccccc21,–,inactive: 9.4% [at 46.1 µM]
CCC(C)Sc1nnc(CNC(=O)C23CC4CC(CC(C4)C2)C3)n1C1CCCCC1 (stereo not drawn),"inconclusive: 35.5 µM [inhibitor, single point]",–
CCOCCN1CCN(C(=O)CN2CCCC2=O)CC1,"inconclusive: 5.62 µM [inhibitor, single point]",–
Cc1ccc(C2=NC3(CCCCC3)NC2=S)cc1,"inconclusive: 35.5 µM [activator, single point]",–
Cn1c(=O)c2cn3c(c2n(C)c1=O)C(c1ccccc1)CC(c1ccccc1)=N3 (stereo not drawn),"inconclusive: 5.62 µM [activator, single point]",–
COc1ccc(OC)c(NC(=O)c2ccc(NS(C)(=O)=O)cc2)c1,"inconclusive: 0.231 µM [activator, single point]",–
COc1ccc(C2=CC(=O)CC(c3ccc(OC)cc3)C2)cc1 (stereo not drawn),"inconclusive: 2.82 µM [activator, full curve, poor fit]",–
Cc1cccc(NS(=O)(=O)c2ccc(NC(=O)CN(c3cc([N+](=O)[O-])ccc3C)S(C)(=O)=O)cc2)c1,"inconclusive: 35.5 µM [inhibitor, single point]",–
Cn1cc(C(=O)c2ccc(Cl)cc2Cl)cc1C(=O)N/N=C(\N)COc1ccc(Cl)cc1Cl,"inconclusive: 35.5 µM [inhibitor, single point]",–

Structure (SMILES),Potency,"activity change, negative = inhibition"
NC(N)=N/N=C/c1ccc(OCc2ccc(Cl)cc2Cl)cc1,active: 10.3 µM,–
C=Cc1ccc(Cn2nc(-c3ccc(C)c(S(=O)(=O)N(CC)CC)c3)ccc2=O)cc1,"inconclusive: 0.562 µM [activator, partial curve, poor fit]",–
COCCCNC(=O)CCCCn1c(=O)c2ccccc2n(CC(=O)Nc2ccc(C)cc2C)c1=O,"inconclusive: 1.12 µM [inhibitor, partial curve, poor fit]",–
Cn1nc(-c2ccc(C(=O)Nc3ccc(F)cc3)cc2)c2ccccc2c1=O,"inconclusive: 6.31 µM [activator, single point] and inconclusive: 20 µM [inhibitor, single point]",–
O=C(O)CSc1c2c(nc3cc(C(=O)Nc4ccc(F)c(Cl)c4)ccc13)CCC2,"inconclusive: 12.6 µM [activator, partial curve, poor fit]",–
Cc1ccc(N2C(=O)CC(n3nc(C)cc3C)C2=O)cc1 (stereo not drawn),–,inactive: -1.71%
CCCCOc1ccccc1C(=O)N(Cc1ccc(C)o1)C1CCS(=O)(=O)C1 (stereo not drawn),inactive,–
COP(=O)(OC)Oc1ccc(C(O)C(Cl)(Cl)Cl)cc1 (stereo not drawn),–,inactive: 1.59%
CCOc1cc(C2C(C(=O)c3ccccc3)=C(C(=O)OC)Nc3nnnn32)ccc1O (stereo not drawn),inactive,–
O=C(Nc1ccc(Cl)cc1)N1CCCN(Cc2ccc(F)cc2)C1,"inconclusive: 5.8 µM [inhibitor, full curve, poor fit]",–
O=C(O)C1CSC2(c3ccc(Br)cc3)CCC(=O)N12 (stereo not drawn),"inconclusive: 3.16 µM [activator, single point]",–
COc1cccc(CC(=O)N2CCc3nc(-c4ccccc4)c4c(c3C2)CO[C@@H](C)C4)c1,inactive,–
COc1cccc([C@@H]2Oc3ccc(OC)cc3C(=O)[C@@H]2O)c1,"inconclusive: 1.19 µM [activator, single point]",–
CCC1/C(=N\O)CC(c2ccco2)NC1c1ccco1 (stereo not drawn),–,inactive: -14.5%
Cc1cc2c(c(=O)n1Cc1ccccn1)[C@H](c1ccc3c(c1)OCO3)C(C#N)=C(N)O2,"inconclusive: 29.1 µM [inhibitor, single point]",–
COc1ccc(-c2noc(-c3ccc(Cl)cc3)n2)cc1,"inconclusive: 3.55 µM [activator, single point]",–
Cc1onc(-c2ccc(Cl)cc2Cl)c1-c1csc(N/N=C/c2ccccc2)n1,"inconclusive: 11.2 µM [inhibitor, partial curve, poor fit]",–
C/C(=N/NS(=O)(=O)c1cccc([N+](=O)[O-])c1)c1ccncc1,"inconclusive: 1 µM [activator, partial curve, poor fit]",–
Cc1onc(-c2ccccc2)c1C(=O)N/N=C/c1cc(Br)c(Br)o1,"inconclusive: 35.5 µM [inhibitor, single point]",–
CC(CN(C)C)CN1c2ccccc2CCc2ccccc21 (stereo not drawn),active: 13 µM and active: 7.08 µM,–
CC1c2[nH]c3ccccc3c2CCN1C(=O)Nc1ccccc1 (stereo not drawn),"inconclusive: 15.8 µM [inhibitor, single point]",–
